From paper PMC3543422
Results are given in words; binding and its absence hold for the method and conditions named. Binding seen in cells or lysates may run through a third protein. For part of these data: Binding can be weak; no strength is given.

Protein sequences, listed by entry. Tags and fused reporters are not part of them. Lines headed by an entry give the natural chain unless they say otherwise; changes in a name come on top.
UniProt Q4V8U3: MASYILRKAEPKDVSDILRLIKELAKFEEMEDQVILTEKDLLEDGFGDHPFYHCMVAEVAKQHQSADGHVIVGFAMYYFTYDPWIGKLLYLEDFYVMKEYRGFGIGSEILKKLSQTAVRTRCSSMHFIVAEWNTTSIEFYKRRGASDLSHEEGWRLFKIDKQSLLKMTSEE
UniProt Q6GQM2: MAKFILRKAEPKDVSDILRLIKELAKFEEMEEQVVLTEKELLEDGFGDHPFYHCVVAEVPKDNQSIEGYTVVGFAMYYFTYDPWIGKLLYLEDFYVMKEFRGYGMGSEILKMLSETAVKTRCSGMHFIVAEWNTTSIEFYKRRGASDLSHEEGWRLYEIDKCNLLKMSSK
UniProt Q7T174: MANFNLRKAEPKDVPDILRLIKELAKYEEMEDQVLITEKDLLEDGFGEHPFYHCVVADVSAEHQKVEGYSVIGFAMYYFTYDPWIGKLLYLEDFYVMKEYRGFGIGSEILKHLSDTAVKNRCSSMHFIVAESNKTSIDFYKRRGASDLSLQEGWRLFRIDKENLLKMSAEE
UniProt Q6EHI4: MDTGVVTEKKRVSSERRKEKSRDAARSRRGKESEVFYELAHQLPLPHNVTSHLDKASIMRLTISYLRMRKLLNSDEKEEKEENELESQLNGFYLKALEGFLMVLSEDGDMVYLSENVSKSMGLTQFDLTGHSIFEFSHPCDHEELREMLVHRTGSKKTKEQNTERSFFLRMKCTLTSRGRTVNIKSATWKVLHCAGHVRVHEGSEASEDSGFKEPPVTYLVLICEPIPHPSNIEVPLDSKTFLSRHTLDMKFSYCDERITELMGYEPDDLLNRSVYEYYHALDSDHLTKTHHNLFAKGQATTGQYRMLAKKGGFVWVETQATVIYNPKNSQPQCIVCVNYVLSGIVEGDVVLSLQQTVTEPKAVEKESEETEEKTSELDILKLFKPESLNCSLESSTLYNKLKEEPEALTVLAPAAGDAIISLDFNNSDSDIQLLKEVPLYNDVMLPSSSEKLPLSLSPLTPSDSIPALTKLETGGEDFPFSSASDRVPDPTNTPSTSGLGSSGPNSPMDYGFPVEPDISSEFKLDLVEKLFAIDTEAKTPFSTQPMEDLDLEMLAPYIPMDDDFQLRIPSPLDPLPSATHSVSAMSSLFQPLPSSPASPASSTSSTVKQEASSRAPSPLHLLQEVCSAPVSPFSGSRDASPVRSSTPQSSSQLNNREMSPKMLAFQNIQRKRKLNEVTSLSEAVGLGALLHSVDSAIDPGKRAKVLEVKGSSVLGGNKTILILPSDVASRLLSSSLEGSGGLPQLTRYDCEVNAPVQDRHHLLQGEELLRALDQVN

Columns and labels:
[1] = molecular target: GST-Ssat1b fusion protein (zebrafish spermidine/spermine N1-acetyltransferase 1b) (zebrafish) (UniProt Q4V8U3); assay: pull-down; GST pull-down: 100 µg lysate of transfected HEK293T cells (Ssat1-transfected cells cultured with 10 µM DENSPM) mixed with 10 µg GST or GST fusion protein in 500 µl PBS at 4°C for 2 h, then glutathione-Sepharose 4B beads 30 min, washed with PBS; SDS-PAGE and western blotting; only the target …
[2] = molecular target: GST-Ssat1c fusion protein (zebrafish spermidine/spermine N1-acetyltransferase 1c) (zebrafish) (UniProt Q6GQM2); assay: as above
[3] = molecular target: GST-Ssat1a fusion protein (zebrafish spermidine/spermine N1-acetyltransferase 1a) (zebrafish) (UniProt Q7T174); assay: condition: 10 µg GST fusion protein with 100 µg lysate in 500 µl; pull-down; GST pull-down: 100 µg lysate of transfected HEK293T cells (Ssat1-transfected cells cultured with 10 µM DENSPM) mixed with 10 µg GST or GST fusion protein in 500 µl PBS at 4°C for 2 h, then glutathione-Sepharose 4B beads 30 min, washed with PBS; SDS-PAGE and western blotting; only the target …
[4] = molecular target: GST-Ssat1a fusion protein (zebrafish spermidine/spermine N1-acetyltransferase 1a) (zebrafish) (UniProt Q7T174); assay: pull-down; GST pull-down: 100 µg lysate of transfected HEK293T cells (Ssat1-transfected cells cultured with 10 µM DENSPM) mixed with 10 µg GST or GST fusion protein in 500 µl PBS at 4°C for 2 h, then glutathione-Sepharose 4B beads 30 min, washed with PBS; SDS-PAGE and western blotting; only the target …

| binding [1] | binding [2] | binding [3] | binding [4] | Substance |
| --- | --- | --- | --- | --- |
| binds | binds | no binding | – | myc-tagged PAS-B domain of zebrafish Hif-1α (from UniProt Q6EHI4) (domain or fragment) |
| – | – | – | binds | myc-tagged zebrafish Ssat1b (from UniProt Q4V8U3) (enzyme) |
| binds | – | – | binds | myc-tagged zebrafish Ssat1c (from UniProt Q6GQM2) (enzyme) |
